The values below come from patent publication US5654178A, “Immunoassay for tetrachloroisophthalonitrile (chlorothalonil), its derivatives and breakdown products” (ISK Biosciences Corporation, priority 1995, dated 1997).

The nature of this series: Recovery of TCPN from spiked tomato by polyclonal EIA.

Structures are written as SMILES.

In the case of `N#Cc1c(Cl)c(Cl)c(Cl)c(C#N)c1Cl` [TCPN, tetrachloroisophthalonitrile], the “% Recovery” value runs as follows: (spike level 0.10 ppm) 120%; (spike level 0.49 ppm) 104%; (spike level 0.98 ppm) 103%; (spike level 4.9 ppm) 115%; (spike level 9.7 ppm) 106%; (spike level 19.6 ppm) 121%. In addition, the “Amount Recovered” value is listed as 0.12 ppm (spike level 0.10 ppm); 0.51 ppm (spike level 0.49 ppm); 1.01 ppm (spike level 0.98 ppm); 5.6 ppm (spike level 4.9 ppm); 10.3 ppm (spike level 9.7 ppm); 23.6 ppm (spike level 19.6 ppm).
